Experimental data taken from patent US20090143482A1, “Pesticidal Substituted Phenylethers” (priority 2005, published 2009).
Some entries share one result that the patent states for a list of compounds.

Tested on: Rhipicephalus sanguineus
Experiment: Screening method to test contact activity against Rhipicephalus sanguineus (brown dog tick), filter paper test
Type: in vivo
Conditions: test concentration of 1000 ppm; larvae (L1) on treated filter paper; 25° C., 90% RH; assessed 24 hours after application in comparison with the untreated control

SMILES	contact control of Rhipicephalus sanguineus
CCCC(=O)c1ccc(OCc2ccccc2)cc1 [Compound 01-03]	at least 70%
CC(=O)c1cccc(OCc2ccccc2)c1 [Compound 01-09]	at least 70%
CC(=O)c1ccccc1OCc1ccccc1 [Compound 01-17]	at least 70%
COC(=O)c1ccc(OCc2ccccc2)cc1 [Compound 01-25]	at least 70%
CCOC(=O)c1ccc(OCc2ccccc2)cc1 [Compound 01-26]	at least 70%
COC(=O)c1ccccc1OCc1ccccc1 [Compound 01-41]	at least 70%
CC(=O)c1ccc(OCc2ccccc2)c(F)c1 [Compound 01-50]	at least 70%
CC(=O)c1ccc(OCc2ccccc2)cc1C [Compound 01-57]	at least 70%
COc1c(C(C)=O)ccc(OCc2ccccc2)c1C [Compound 01-63]	at least 70%
Cc1ccc(OCc2ccccc2)cc1 [Compound 01-65]	at least 70%
CCc1ccc(OCc2ccccc2)cc1 [Compound 01-66]	at least 70%
c1ccc(COc2ccc(C3CCCCC3)cc2)cc1 [Compound 01-76]	at least 70%
N#Cc1ccc(OCc2ccccc2)cc1 [Compound 01-78]	at least 70%
Fc1cc(Br)ccc1OCc1ccccc1 [Compound 01-99]	at least 70%
Clc1ccc(OCc2ccccc2)c(Cl)c1 [Compound 01-102]	at least 70%
Clc1cc(Br)ccc1OCc1ccccc1 [Compound 01-103]	at least 70%
Cc1cc(Br)ccc1OCc1ccccc1 [Compound 01-108]	at least 70%
Clc1ccc(OCc2ccccc2)cc1Cl [Compound 01-112]	at least 70%
CCCOCc1ccc(OCc2ccccc2)cc1 [Compound 01-116]	at least 70%
CCCOCCc1ccc(OCc2ccccc2)cc1 [Compound 01-121]	at least 70%
CCCCOCCc1ccc(OCc2ccccc2)cc1 [Compound 01-122]	at least 70%
FC(F)(F)c1ccc(OCc2ccccc2)c(I)c1 [Compound 01-131]	at least 70%
CC(=O)c1ccc(OCc2cccc(F)c2)cc1 [Compound 02-02]	at least 70%

SMILES	contact control of Rhipicephalus sanguineus
CC(=O)c1ccc(OCc2ccc(F)cc2)cc1 [Compound 02-03]	at least 70%
CC(=O)c1ccc(OCc2ccc(F)cc2F)cc1 [Compound 02-05]	at least 70%
CC(=O)c1ccc(OCc2cccc(C)c2)cc1 [Compound 02-26]	at least 70%
CC(=O)c1ccc(OCc2cc(C)cc(C)c2)cc1 [Compound 02-33]	at least 70%
CC(=O)c1ccc(OCc2ccccc2C(F)(F)F)cc1 [Compound 02-34]	at least 70%
CC(=O)c1ccc(OCc2cccc(C(F)(F)F)c2)cc1 [Compound 02-35]	at least 70%
CC(=O)c1ccc(OCc2ccc(C(F)(F)F)cc2)cc1 [Compound 02-36]	at least 70%
Brc1ccc(COCc2ccccc2)cc1 [Compound 03-90]	at least 70%
N#Cc1ccc(COCc2ccccc2)cc1 [Compound 03-106]	at least 70%
CCCCCCCOc1ccc(C(C)=O)cc1 [Compound 05-03]	at least 70%
CCCCCCCCOc1ccc(C(C)=O)cc1 [Compound 05-04]	at least 70%
CC(=O)c1ccc(OCC2CCCCC2)cc1 [Compound 05-08]	at least 70%
CC(=O)c1ccc(OCC2CC=CCC2)cc1 (stereo not drawn) [Compound 05-13]	at least 70%
CC(=O)c1ccc(OCCC2CCCCC2)cc1 [Compound 05-15]	at least 70%
CC(=O)c1ccc(OCC2CC3CCC2C3)cc1 (stereo not drawn) [Compound 05-21]	at least 70%
c1ccc(COC2CCc3ccccc32)cc1 (stereo not drawn) [Compound 05-109]	at least 70%
c1ccc(COC2Cc3ccccc3C2)cc1 [Compound 05-110]	at least 70%
Brc1ccc2c(c1)CCC2OCc1ccccc1 (stereo not drawn) [Compound 05-115]	at least 70%
c1ccc(COC2CCc3ccccc3C2)cc1 (stereo not drawn) [Compound 05-117]	at least 70%
Cc1cccc(COC2Cc3ccccc3C2)c1 [Compound 05-125]	at least 70%
Clc1ccc(COC2Cc3ccccc3C2)c(Cl)c1 [Compound 05-129]	at least 70%
CC(=O)c1ccc(OCCc2ccccc2)cc1 [Compound 06-01]	at least 70%
